Measured values published in US4711878A, “Novel peptides and processes for preparing the same” (Tanabe Seiyaku Co., Ltd., priority 1985, dated 1987).
At least one peptide structure holds a part that was inferred or is arguable (an end, a ring closure or a residue).

Test system: male STD/ddY mice
Experiment: Potentiating effect on action of L-Dopa
Type: in vivo
Conditions: reserpine 3 mg/kg s.c., L-Dopa 200 mg/kg i.p., test compound i.p., locomotor activity for 15 minutes, calculated from dose response curves

NC(=O)[C@@H]1CCCN1C(=O)[C@H](Cc1c[nH]cn1)NC(=O)C1CS(=O)(=O)NC(=O)N1 (stereo partly drawn) [N^α -[(RS)-3-oxo-3,4,5,6-tetrahydro-2H-1,2,4-thiadiazine-1,1-dioxide-5-carbonyl]-L-histidyl-L-prolinamide]
Potency ratio relative to TRH, potentiating effect on action of Dopamine: 16.2
